In one experiment the target is GST-USP14 (human) (UniProt P54578). Put plainly: pull-down; GST, GST-TAZ or GST-USP14 from E. coli BL21 on glutathione agarose, incubated with cell lysate at 4 °C for 4 h; RIPA lysis buffer (50 mM Tris pH 7.4, 150 mM NaCl, 0.5% NP40, 1 mM EDTA); western blot; only the target purified.
In experiment [1] the target is TAZ-Flag (full length) (human) (UniProt Q9GZV5). Put plainly: co-IP; HEK293T cells transfected with full-length or truncated TAZ and USP14 plasmids; IP buffer 20 mM Tris-HCl pH 7.4, 150 mM NaCl, 1 mM EDTA, 1% NP-40; overnight at 4 °C.

By UniProt entry, the sequences of proteins in these tests, tags left out. Where a name states a change or a piece, a line headed by the entry shows the natural chain unless it says otherwise.
UniProt P54578: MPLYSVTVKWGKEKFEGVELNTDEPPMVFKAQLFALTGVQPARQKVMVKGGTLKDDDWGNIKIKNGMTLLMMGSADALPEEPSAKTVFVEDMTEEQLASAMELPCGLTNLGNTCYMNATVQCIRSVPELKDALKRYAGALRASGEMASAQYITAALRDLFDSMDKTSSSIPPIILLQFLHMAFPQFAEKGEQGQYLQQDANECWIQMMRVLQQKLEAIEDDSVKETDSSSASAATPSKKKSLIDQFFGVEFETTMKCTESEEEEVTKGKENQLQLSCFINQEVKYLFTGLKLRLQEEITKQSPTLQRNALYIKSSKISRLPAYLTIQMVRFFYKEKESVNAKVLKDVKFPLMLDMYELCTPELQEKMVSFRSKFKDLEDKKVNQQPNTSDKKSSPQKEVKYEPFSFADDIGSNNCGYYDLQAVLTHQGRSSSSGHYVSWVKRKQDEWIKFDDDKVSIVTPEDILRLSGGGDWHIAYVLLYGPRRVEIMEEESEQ
UniProt Q9GZV5: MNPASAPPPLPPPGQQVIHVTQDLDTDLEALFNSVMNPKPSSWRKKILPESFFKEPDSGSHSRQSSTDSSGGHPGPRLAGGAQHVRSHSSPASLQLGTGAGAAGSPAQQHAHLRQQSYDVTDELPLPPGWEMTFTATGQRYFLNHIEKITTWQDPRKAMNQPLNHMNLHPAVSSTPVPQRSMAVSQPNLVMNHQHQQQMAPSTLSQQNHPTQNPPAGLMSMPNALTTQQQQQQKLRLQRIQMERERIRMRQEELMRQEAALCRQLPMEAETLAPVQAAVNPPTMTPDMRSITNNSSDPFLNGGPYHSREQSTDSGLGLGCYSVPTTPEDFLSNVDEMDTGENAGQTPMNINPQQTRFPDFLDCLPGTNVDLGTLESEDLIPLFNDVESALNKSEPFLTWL

No constants are given. Whether binding was seen depends on the method and setting. Binding seen in cells or lysates may run through a third protein. Some binding calls cover weakened binding; strength is not graded here.

This passage reports binding results from paper PMC9883464.

Turning to “TAZ (in the cell lysate of the GST pull-down) (from UniProt Q9GZV5 1-400)”, the binding entry in the experiment with GST-USP14 (human) is “binds”.
On to “USP14 U2 (aa 105-494) (from UniProt P54578 105-494) (domain or fragment)”, for which the binding entry in experiment [1] is on record as “binds”.
